Experimental findings from publication PMC9105187 are described below.

By UniProt entry, the sequences of proteins in these tests, tags left out. Where a name states a change or a piece, a line headed by the entry shows the natural chain unless it says otherwise. Chains listed by the source or under a name are the forms on record and can include a tag or linker. Residues count along the entry.
UniProt Q12983: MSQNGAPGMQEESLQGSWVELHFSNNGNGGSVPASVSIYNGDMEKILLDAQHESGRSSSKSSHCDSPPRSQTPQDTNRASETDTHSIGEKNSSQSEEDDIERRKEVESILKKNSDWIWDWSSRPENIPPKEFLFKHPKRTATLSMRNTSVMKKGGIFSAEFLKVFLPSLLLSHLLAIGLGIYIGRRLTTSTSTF
UniProt P04406: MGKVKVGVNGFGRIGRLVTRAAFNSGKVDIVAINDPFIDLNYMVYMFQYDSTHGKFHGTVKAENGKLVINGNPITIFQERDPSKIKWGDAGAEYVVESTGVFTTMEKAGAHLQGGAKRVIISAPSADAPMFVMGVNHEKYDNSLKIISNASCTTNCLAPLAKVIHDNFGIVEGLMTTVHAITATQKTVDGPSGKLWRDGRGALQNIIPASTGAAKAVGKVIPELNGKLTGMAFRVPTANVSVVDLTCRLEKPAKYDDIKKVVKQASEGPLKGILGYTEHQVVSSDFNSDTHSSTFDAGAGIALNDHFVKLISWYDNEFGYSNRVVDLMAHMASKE
UniProt O95202, residues 116-739: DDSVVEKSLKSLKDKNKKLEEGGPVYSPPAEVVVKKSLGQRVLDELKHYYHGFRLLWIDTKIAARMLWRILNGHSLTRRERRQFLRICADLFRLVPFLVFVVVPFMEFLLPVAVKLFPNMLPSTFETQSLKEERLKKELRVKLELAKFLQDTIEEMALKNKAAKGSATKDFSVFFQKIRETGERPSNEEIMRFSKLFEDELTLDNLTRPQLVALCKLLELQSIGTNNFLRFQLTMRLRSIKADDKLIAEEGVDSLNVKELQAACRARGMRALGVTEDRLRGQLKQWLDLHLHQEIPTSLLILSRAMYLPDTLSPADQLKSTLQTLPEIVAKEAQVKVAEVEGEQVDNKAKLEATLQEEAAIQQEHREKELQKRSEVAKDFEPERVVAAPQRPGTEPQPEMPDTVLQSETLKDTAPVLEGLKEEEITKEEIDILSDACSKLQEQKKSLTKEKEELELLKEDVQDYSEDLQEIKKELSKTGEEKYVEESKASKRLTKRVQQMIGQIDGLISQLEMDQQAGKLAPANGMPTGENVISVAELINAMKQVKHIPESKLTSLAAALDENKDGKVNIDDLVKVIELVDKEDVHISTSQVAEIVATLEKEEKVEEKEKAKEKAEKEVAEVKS
sarcoplasmic/endoplasmic reticulum calcium ATPase isoform 2a (human) (P16615-2, form named): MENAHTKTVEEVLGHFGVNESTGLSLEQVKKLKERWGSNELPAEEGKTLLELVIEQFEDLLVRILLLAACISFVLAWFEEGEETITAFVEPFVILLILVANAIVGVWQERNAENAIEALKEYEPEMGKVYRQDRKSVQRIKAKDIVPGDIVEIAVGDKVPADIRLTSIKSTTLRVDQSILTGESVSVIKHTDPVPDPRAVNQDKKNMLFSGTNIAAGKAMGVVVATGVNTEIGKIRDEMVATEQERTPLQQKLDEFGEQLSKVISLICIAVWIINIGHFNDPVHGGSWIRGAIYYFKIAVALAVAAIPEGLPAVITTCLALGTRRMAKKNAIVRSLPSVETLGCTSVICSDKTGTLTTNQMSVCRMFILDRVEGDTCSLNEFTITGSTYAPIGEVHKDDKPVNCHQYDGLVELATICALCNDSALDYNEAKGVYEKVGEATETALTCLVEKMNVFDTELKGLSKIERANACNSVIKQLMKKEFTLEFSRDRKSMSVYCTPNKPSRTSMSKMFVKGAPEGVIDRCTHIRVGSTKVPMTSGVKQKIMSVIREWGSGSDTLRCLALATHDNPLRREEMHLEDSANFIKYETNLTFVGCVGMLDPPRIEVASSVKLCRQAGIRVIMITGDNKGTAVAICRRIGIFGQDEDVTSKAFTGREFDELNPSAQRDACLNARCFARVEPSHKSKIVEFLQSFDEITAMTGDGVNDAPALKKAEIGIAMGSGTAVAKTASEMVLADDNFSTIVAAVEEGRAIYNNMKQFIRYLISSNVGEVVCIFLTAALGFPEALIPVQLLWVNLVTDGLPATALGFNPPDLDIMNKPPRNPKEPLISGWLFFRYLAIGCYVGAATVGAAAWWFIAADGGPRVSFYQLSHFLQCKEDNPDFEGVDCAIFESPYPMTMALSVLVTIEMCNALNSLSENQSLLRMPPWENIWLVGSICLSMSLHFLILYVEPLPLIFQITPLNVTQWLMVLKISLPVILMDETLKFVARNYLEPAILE
UniProt P21796: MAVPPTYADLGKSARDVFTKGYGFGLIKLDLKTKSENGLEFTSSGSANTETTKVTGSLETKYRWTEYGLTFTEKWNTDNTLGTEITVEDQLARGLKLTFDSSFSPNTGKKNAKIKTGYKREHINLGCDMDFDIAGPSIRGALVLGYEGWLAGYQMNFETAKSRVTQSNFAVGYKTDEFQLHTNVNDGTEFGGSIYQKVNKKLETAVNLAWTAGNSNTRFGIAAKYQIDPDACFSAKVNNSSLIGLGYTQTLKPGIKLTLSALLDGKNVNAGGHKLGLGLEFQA

Results are given in words; binding and its absence hold for the method and conditions named. Binding seen in cells or lysates may run through a third protein. Some entries that bind do so weakly or less than the wild type.

The target in this test is Bcl-2 nineteen kilodalton interacting protein 3 (human) (human (endogenous in LV myocardium)) (UniProt Q12983). Briefly: co-IP; 250 ug lysate of human HFrEF LV myocardium (n = 3) with 5 ug mouse monoclonal BNIP3 antibody (Abcam ab10433), Dynabeads Protein G; western blot. On the technique in general: In western blotting, separated proteins are transferred to a membrane and probed.
For “GAPDH (human) (from UniProt P04406 1-335)”, the binding entry is listed as “no binding”.
As for “mt-proton/calcium exchanger protein LETM1 (human) (from UniProt O95202 116-739)”, the binding result is “binds”.
As to “sarcoplasmic/endoplasmic reticulum calcium ATPase isoform 2a (human) (from UniProt P16615-2 1-997)”, the binding entry is given as “binds”.
In the case of “voltage-dependent anion channel isoform 1 (human) (from UniProt P21796 1-283)”, the binding entry is on record as “binds”.
